US20220000974A1
Results are given in words; binding and its absence hold for the method and conditions named. Binding seen in cells or lysates may run through a third protein. Some binding calls cover weakened binding; strength is not graded here.

By UniProt entry, the sequences of proteins in these tests, tags left out.
UniProt P29351: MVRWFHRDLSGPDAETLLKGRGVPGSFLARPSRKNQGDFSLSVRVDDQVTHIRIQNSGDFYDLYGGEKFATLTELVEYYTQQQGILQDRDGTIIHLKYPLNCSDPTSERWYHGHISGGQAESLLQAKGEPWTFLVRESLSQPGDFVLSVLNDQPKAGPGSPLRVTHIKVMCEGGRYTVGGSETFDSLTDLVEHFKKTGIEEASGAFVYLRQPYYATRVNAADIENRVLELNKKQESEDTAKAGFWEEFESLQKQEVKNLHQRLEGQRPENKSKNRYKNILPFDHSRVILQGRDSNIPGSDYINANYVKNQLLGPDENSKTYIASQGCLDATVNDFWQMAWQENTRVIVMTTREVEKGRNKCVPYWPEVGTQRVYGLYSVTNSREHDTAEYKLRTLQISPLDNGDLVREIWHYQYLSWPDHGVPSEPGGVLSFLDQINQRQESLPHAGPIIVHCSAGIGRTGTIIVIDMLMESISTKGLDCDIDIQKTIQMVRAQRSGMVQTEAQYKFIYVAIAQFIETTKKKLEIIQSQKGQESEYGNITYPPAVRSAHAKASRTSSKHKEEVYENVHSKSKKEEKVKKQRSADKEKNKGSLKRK

Key:
[1] = biological target: T1, endogenous Siglec G from mouse spleen cells (mouse) (UniProt Q80ZE3); assay: co-immunoprecipitation from spleen cell lysate, Western blot (FIG. 12c)
T1 sequence (looked up): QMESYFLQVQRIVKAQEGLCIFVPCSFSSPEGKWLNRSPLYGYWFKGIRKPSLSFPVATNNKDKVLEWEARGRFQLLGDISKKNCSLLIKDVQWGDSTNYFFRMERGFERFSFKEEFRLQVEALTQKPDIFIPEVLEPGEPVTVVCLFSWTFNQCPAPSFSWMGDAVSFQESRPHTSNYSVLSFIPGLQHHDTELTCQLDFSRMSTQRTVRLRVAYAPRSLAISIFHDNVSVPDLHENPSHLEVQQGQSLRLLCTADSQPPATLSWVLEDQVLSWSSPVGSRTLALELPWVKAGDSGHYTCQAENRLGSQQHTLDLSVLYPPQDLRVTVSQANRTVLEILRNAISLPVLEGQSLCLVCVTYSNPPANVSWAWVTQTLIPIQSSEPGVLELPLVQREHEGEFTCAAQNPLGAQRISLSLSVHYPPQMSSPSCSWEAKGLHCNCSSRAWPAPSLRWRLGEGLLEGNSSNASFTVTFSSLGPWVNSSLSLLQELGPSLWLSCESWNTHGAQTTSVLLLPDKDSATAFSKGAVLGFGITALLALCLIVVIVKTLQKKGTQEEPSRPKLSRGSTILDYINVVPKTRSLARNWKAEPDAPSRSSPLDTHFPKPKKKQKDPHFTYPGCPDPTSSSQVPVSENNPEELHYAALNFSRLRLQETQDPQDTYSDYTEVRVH

[2] = biological target: T2, endogenous Siglec E of mouse spleen cells and peritoneal macrophages (mouse) (UniProt Q91Y57); assay: as above
T2 sequence (looked up): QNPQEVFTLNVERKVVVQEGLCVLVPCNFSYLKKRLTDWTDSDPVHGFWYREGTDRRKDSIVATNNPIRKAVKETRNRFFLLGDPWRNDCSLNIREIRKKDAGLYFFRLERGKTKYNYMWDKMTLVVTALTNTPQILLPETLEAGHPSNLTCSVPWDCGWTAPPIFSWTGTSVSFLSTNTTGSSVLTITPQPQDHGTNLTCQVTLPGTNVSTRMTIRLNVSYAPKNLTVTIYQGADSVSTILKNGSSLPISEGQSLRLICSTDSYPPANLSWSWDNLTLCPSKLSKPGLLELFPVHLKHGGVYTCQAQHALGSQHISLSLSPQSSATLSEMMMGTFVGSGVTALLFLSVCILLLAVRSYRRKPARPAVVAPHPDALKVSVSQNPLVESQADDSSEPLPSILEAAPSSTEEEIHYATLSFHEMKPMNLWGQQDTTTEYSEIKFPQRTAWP

[3] = biological target: T1, endogenous Siglec G from mouse spleen cells (mouse); assay: co-immunoprecipitation from WT spleen cell lysate, Western blot (FIG. 12c)
[4] = biological target: T2, endogenous Siglec E of mouse spleen cells and peritoneal macrophages (mouse); assay: as above

Measured: binding

SHP-1, endogenous, from mouse spleen cells (from UniProt P29351 1-595) (enzyme)
binds: all assays above
